Data published in the supplement of paper PMC8728848.
The list shows a part of the results.

Tests used:
Assay in all cases: glycan array binding signal (z-score within array); higher = stronger binding
Details in all cases: glycan notation: IUPAC condensed, linker removed
Glc(b1-4)Glc = target: Glc(b1-4)Glc
How it was run: (§1)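 The binding signal is a Z-score computed within each array. Data were drawn from 3228 arrays in the Consortium for Functional Glycomics database, restricted to those with a known protein sequence. Scores were averaged over arrays of the same protein sequence at different concentrations or buffers, and over linkers, and negative values can be taken as non-binding.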

Glc(b1-6)Glc = target: Glc(b1-6)Glc
How it was run: as §1

GlcA(b1-3)Gal = target: GlcA(b1-3)Gal
How it was run: as §1

GlcA(b1-3)GlcNAc = target: GlcA(b1-3)GlcNAc
How it was run: as §1

GlcA(b1-6)Gal = target: GlcA(b1-6)Gal
How it was run: as §1

[1] = target: GlcA3S(b1-3)Gal(b1-4)GlcNAc(b1-2)Man
How it was run: as §1

[2] = target: GlcA3S(b1-3)Gal(b1-4)GlcNAc(b1-3)Gal(b1-4)Glc
How it was run: as §1

[3] = target: GlcNAc(a1-3)Gal(b1-4)GlcNAc
How it was run: as §1

[4] = target: GlcNAc(a1-4)Gal(b1-3)GlcNAc
How it was run: as §1

[5] = target: GlcNAc(a1-4)Gal(b1-4)GalNAc
How it was run: as §1

[6] = target: GlcNAc(a1-4)Gal(b1-4)GlcNAc
How it was run: as §1

[7] = target: GlcNAc(a1-4)Gal(b1-4)GlcNAc(b1-3)Gal(b1-4)Glc
How it was run: as §1

[8] = target: GlcNAc(a1-4)Gal(b1-4)GlcNAc(b1-3)Gal(b1-4)GlcNAc
How it was run: as §1

[9] = target: GlcNAc(a1-4)Gal(b1-4)GlcNAc(b1-3)Gal(b1-4)GlcNAc(b1-3)Gal(b1-4)GlcNAc
How it was run: as §1

[10] = target: GlcNAc(a1-4)Gal(b1-4)GlcNAc(b1-3)Gal(b1-4)[Fuc(a1-3)]GlcNAc(b1-3)Gal(b1-4)[Fuc(a1-3)]GlcNAc
How it was run: as §1

[11] = target: GlcNAc(a1-6)Gal(b1-4)GlcNAc
How it was run: as §1

[12] = target: GlcNAc(b1-2)Gal(b1-3)GalNAc
How it was run: as §1

[13] = target: GlcNAc(b1-2)Man(a1-3)[GlcNAc(b1-2)Man(a1-6)]Man(b1-4)GlcNAc(b1-4)GlcNAc
How it was run: as §1

[14] = target: GlcNAc(b1-2)Man(a1-3)[GlcNAc(b1-2)Man(a1-6)]Man(b1-4)GlcNAc(b1-4)[Fuc(a1-6)]GlcNAc
How it was run: as §1

[15] = target: GlcNAc(b1-2)Man(a1-3)[GlcNAc(b1-4)][GlcNAc(b1-2)Man(a1-6)]Man(b1-4)GlcNAc(b1-4)GlcNAc
How it was run: as §1

[16] = target: GlcNAc(b1-2)Man(a1-3)[GlcNAc(b1-4)][GlcNAc(b1-2)Man(a1-6)]Man(b1-4)GlcNAc(b1-4)[Fuc(a1-6)]GlcNAc
How it was run: as §1

[17] = target: GlcNAc(b1-2)[GlcNAc(b1-4)]Man(a1-3)[GlcNAc(b1-2)Man(a1-6)]Man(b1-4)GlcNAc(b1-4)GlcNAc
How it was run: as §1

[18] = target: GlcNAc(b1-2)[GlcNAc(b1-4)]Man(a1-3)[GlcNAc(b1-4)][GlcNAc(b1-2)Man(a1-6)]Man(b1-4)GlcNAc(b1-4)GlcNAc
How it was run: as §1

[19] = target: GlcNAc(b1-2)[GlcNAc(b1-4)]Man(a1-3)[GlcNAc(b1-4)][GlcNAc(b1-2)[GlcNAc(b1-6)]Man(a1-6)]Man(b1-4)GlcNAc(b1-4)GlcNAc
How it was run: as §1

[20] = target: GlcNAc(b1-2)[GlcNAc(b1-4)]Man(a1-3)[GlcNAc(b1-4)][GlcNAc(b1-2)[GlcNAc(b1-6)]Man(a1-6)]Man(b1-4)GlcNAc(b1-4)[Fuc(a1-6)]GlcNAc
How it was run: as §1

[21] = target: GlcNAc(b1-2)[GlcNAc(b1-6)]Man(a1-6)[GlcNAc(b1-2)Man(a1-3)]Man(b1-4)GlcNAc(b1-4)GlcNAc
How it was run: as §1

[22] = target: GlcNAc(b1-2)[GlcNAc(b1-6)]Man(a1-6)[GlcNAc(b1-2)Man(a1-3)]Man(b1-4)GlcNAc(b1-4)[Fuc(a1-6)]GlcNAc
How it was run: as §1

[23] = target: GlcNAc(b1-2)[GlcNAc(b1-6)]Man(a1-6)[GlcNAc(b1-4)][GlcNAc(b1-2)Man(a1-3)]Man(b1-4)GlcNAc(b1-4)GlcNAc
How it was run: as §1

GlcNAc(b1-3)Fuc = target: GlcNAc(b1-3)Fuc
How it was run: as §1

GlcNAc(b1-3)Gal = target: GlcNAc(b1-3)Gal
How it was run: as §1

[24] = target: GlcNAc(b1-3)Gal(b1-3)GalNAc
How it was run: as §1

GlcNAc(b1-3)Gal(b1-4)Glc = target: GlcNAc(b1-3)Gal(b1-4)Glc
How it was run: as §1

[25] = target: GlcNAc(b1-3)Gal(b1-4)GlcNAc
How it was run: as §1

[26] = target: GlcNAc(b1-3)Gal(b1-4)GlcNAc(b1-2)Man(a1-3)[GlcNAc(b1-3)Gal(b1-4)GlcNAc(b1-2)Man(a1-6)]Man(b1-4)GlcNAc(b1-4)GlcNAc
How it was run: as §1

[27] = target: GlcNAc(b1-3)Gal(b1-4)GlcNAc(b1-2)Man(a1-3)[GlcNAc(b1-3)Gal(b1-4)GlcNAc(b1-2)Man(a1-6)]Man(b1-4)GlcNAc(b1-4)[Fuc(a1-6)]GlcNAc
How it was run: as §1

[28] = target: GlcNAc(b1-3)Gal(b1-4)GlcNAc(b1-2)[GlcNAc(b1-3)Gal(b1-4)GlcNAc(b1-6)]Man(a1-6)[GlcNAc(b1-3)Gal(b1-4)GlcNAc(b1-2)Man(a1-3)]Man(b1-4)GlcNAc(b1-4)GlcNAc
How it was run: as §1

[29] = target: GlcNAc(b1-3)Gal(b1-4)GlcNAc(b1-3)Gal(b1-4)GlcNAc
How it was run: as §1

B1: RbmA (Vibrio cholerae), A0A2H4NFB8 (protein)
chain: MSNFKGSIMNKRHYYLASCLALLFSTASYAEVDCELQPVIEANLSLNQNQLASNGGYISSQLGIRNESCETVKFKYWLSIKGPEGIYFPAKAVVGVDTAQQESDALTDGRMLNVTRGFWVPEYMADGKYTVSLQVVAENGEVFKANQEFVKGGDLNSLPELNGLTIDIKNQFGINSVESTGGFVPFTIDLNNGREGEAKVEFWMTAVGPDGLIIPVHSREKWMIIAGNTFSKVRGINFDKSYPAGEYTINAQVVDIVSGERVEQLMTVVKK
For B1, the “glycan array binding signal (z-score)” value (Glc(b1-4)Glc) was -1.24, the “glycan array binding signal (z-score)” value (Glc(b1-6)Glc) was -0.471 and the “glycan array binding signal (z-score)” value (GlcA(b1-3)Gal) was -0.353. For the same binder, the “glycan array binding signal (z-score)” value (GlcA(b1-3)GlcNAc) was 1.7, the “glycan array binding signal (z-score)” value (GlcA(b1-6)Gal) was -0.721 and the “glycan array binding signal (z-score)” value [1] was -0.555. For the same binder, the “glycan array binding signal (z-score)” value [2] was -0.325, the “glycan array binding signal (z-score)” value [3] was -1.07 and the “glycan array binding signal (z-score)” value [4] was 0.397. For the same binder, the “glycan array binding signal (z-score)” value [5] was -0.351, the “glycan array binding signal (z-score)” value [6] was -0.51 and the “glycan array binding signal (z-score)” value [7] was -0.328. For the same binder, the “glycan array binding signal (z-score)” value [8] was 0.119, the “glycan array binding signal (z-score)” value [9] was 3.48 and the “glycan array binding signal (z-score)” value [10] was 4.35. For the same binder, the “glycan array binding signal (z-score)” value [11] was 1.6, the “glycan array binding signal (z-score)” value [12] was -0.29 and the “glycan array binding signal (z-score)” value [13] was -0.108. For the same binder, the “glycan array binding signal (z-score)” value [14] was -0.189, the “glycan array binding signal (z-score)” value [15] was 0.16 and the “glycan array binding signal (z-score)” value [16] was 0.27. For the same binder, the “glycan array binding signal (z-score)” value [17] was -0.394, the “glycan array binding signal (z-score)” value [18] was -0.869 and the “glycan array binding signal (z-score)” value [19] was 0.291. The “glycan array binding signal (z-score)” value [20] was -0.751, the “glycan array binding signal (z-score)” value [21] was -0.384 and the “glycan array binding signal (z-score)” value [22] was -0.474. For the same binder, the “glycan array binding signal (z-score)” value [23] was 0.351, the “glycan array binding signal (z-score)” value (GlcNAc(b1-3)Fuc) was -0.096 and the “glycan array binding signal (z-score)” value (GlcNAc(b1-3)Gal) was -0.029. The “glycan array binding signal (z-score)” value [24] was 0.322, the “glycan array binding signal (z-score)” value (GlcNAc(b1-3)Gal(b1-4)Glc) was -0.931 and the “glycan array binding signal (z-score)” value [25] was 0.727. For the same binder, the “glycan array binding signal (z-score)” value [26] was -0.474, the “glycan array binding signal (z-score)” value [27] was -0.508 and the “glycan array binding signal (z-score)” value [28] was 0.114. The “glycan array binding signal (z-score)” value [29] was -0.783.
